Test results: PMC7819943, “Rice protein-binding microarrays: a tool to detect cis-acting elements near promoter regions in rice”
Some of the results follow.

Amino acid sequences for entries named in this document (tags omitted).
UniProt Q0JBA9, entry or part of it: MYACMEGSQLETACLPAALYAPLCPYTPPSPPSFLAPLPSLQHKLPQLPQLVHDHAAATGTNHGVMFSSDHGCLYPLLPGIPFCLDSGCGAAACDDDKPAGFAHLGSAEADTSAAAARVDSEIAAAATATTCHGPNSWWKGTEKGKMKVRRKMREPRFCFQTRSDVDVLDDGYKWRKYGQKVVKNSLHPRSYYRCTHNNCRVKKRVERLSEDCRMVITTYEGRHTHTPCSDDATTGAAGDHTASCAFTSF

biological target: OsWRKY34 (Oryza sativa, UniProt Q0JBA9 1-250); assay: protein-binding microarray (RPBM); PBS, 2% BSA, 51.3 ng/ul salmon testes DNA, 50 uM zinc acetate, 200 nM TF, 25 C, 1 h; high values mean tight binding; conditions: protein: recombinant; tags: N-terminal polyhistidine and DsRed monomer fusion (pET32a); label: CyDye5-dUTP incorporated in the synthesized complementary strand; 3' TTTTT single-stranded linker to array surface; dsDNA, one strand shown
Procedure, shortened: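 Polyhistidine-tagged DsRed fusions of transcription factors, joined at the N-terminus, were expressed in E. coli BL21-CodonPlus and isolated on Ni–NTA. They were incubated at 200 nM for 1 h at 25 °C on a custom Agilent array, double-stranded and BSA-blocked, in PBS with 2% BSA, salmon testes DNA and 50 µM zinc acetate. The binding signal is per-feature fluorescence intensity (arbitrary units) read on an Axon 4000B scanner after washing.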

Sequence | binding signal
CAATCATTCTCATATACTTTCTTAATACCGTGCCAACCTTCGGAGTCACCTAGTGCAG | 8780 fluorescence intensity (a.u.)
TAATTTGGTCCATGCCATGCTGATAAAGCATGTTTCTTCTCGGAGTCACCTAGTGCAG | 9060 fluorescence intensity (a.u.)
CACTACTATTTTGGTACTATCTCATCCTGCAGTGTACACGCGGAGTCACCTAGTGCAG | 8750 fluorescence intensity (a.u.)
TTTTTTTGTTGGTTTGTGGTGTTCTGGAGCATTCTTTGAACGGAGTCACCTAGTGCAG | 8290 fluorescence intensity (a.u.)
AGGCAGAAGATCCGTCCCGTACTCCCGTCGTCCATCATTCCGGAGTCACCTAGTGCAG | 8950 fluorescence intensity (a.u.)
GCTGAGTATATGTGTGTGCACACGTCTTCCAACGTGTCATCGGAGTCACCTAGTGCAG | 9000 fluorescence intensity (a.u.)
GATTCCCCAACGGTCAACCCCTAAACCCTAGATTTCCATCCGGAGTCACCTAGTGCAG | 8040 fluorescence intensity (a.u.)
CGACGACCACACGAGCGCCGTACCAAATCCTGCCTATATACGGAGTCACCTAGTGCAG | 8130 fluorescence intensity (a.u.)
CCCACTGGTTGTCCGCCTGCTTCTCCCCGCCCCAATCCACCGGAGTCACCTAGTGCAG | 8790 fluorescence intensity (a.u.)
ATTATTTGTCATCGGCACCTAGCCGATCCGCTGTCATTTACGGAGTCACCTAGTGCAG | 12700 fluorescence intensity (a.u.)
AGTTTGTGTCGTGAAAGGGAATTCATTATCGTCCTGCCCTCGGAGTCACCTAGTGCAG | 8150 fluorescence intensity (a.u.)
ATCAGTGTATGGTGCTCTGTTCAGTTCATCATCAGCATCACGGAGTCACCTAGTGCAG | 8330 fluorescence intensity (a.u.)
ACCTGCCTTATCTGTTCTATTTTGCCTTTACTTTCTTTTTCGGAGTCACCTAGTGCAG | 13000 fluorescence intensity (a.u.)
CCTAAAAAGATGGCCTAATTACGAATTGGGAGGGGTAAAACGGAGTCACCTAGTGCAG | 9120 fluorescence intensity (a.u.)
ATCCAATTCCAAAGGCCCATAGCTCATATGCCCTGGCTCGCGGAGTCACCTAGTGCAG | 9890 fluorescence intensity (a.u.)
CTCGTACTGGCACCCACTCTCTCTCCCTGCCTCTCTGCCACGGAGTCACCTAGTGCAG | 8810 fluorescence intensity (a.u.)
AGAACGAACAGTCAAACATATGCTAAAAAGTCAACGGTGTCGGAGTCACCTAGTGCAG | 10200 fluorescence intensity (a.u.)
TGATAGTTGGGTTTACTTGAAGATTCGTGTGTGGGAGTTTCGGAGTCACCTAGTGCAG | 9650 fluorescence intensity (a.u.)
AGTTTGGGTGTTGGGCTCTCATTCTTATCTCGTTATCAATCGGAGTCACCTAGTGCAG | 15900 fluorescence intensity (a.u.)
AATTATTTCAGTGTACTTTTGATAAATTTAAGCCTTGTTTCGGAGTCACCTAGTGCAG | 10100 fluorescence intensity (a.u.)
AACGCCACCTCAATATCTATATTAAGTCTCGTCACCGTCTCGGAGTCACCTAGTGCAG | 8260 fluorescence intensity (a.u.)

Sequence | binding signal
GGAGGAGGGGAGGAGGGGAGGGAGATCGATCTGAGAGGATCGGAGTCACCTAGTGCAG | 12800 fluorescence intensity (a.u.)
TTGCCAGTTTGCCACCTCGCGTCATGGATCGCCCTTTTGCCGGAGTCACCTAGTGCAG | 11300 fluorescence intensity (a.u.)
TGTTGCTTAACGATTTGCCACTAGGCCCACATGTCATAGACGGAGTCACCTAGTGCAG | 8660 fluorescence intensity (a.u.)
GCCCAATCAAACAATCATTCATATGTTTTTCCTGTGTTTTCGGAGTCACCTAGTGCAG | 10600 fluorescence intensity (a.u.)
TATTCTTGTCCTTAAGGTTTTGCTGGGTATTCTTTTTTAGCGGAGTCACCTAGTGCAG | 12800 fluorescence intensity (a.u.)
ACCTCATCCCTACCGTCCATTCCCCGATCGGACGGCCACCCGGAGTCACCTAGTGCAG | 10200 fluorescence intensity (a.u.)
CATCGCCGCCGCCGCCGCCCCATTCTCCGGCCATCCTCCGCGGAGTCACCTAGTGCAG | 14900 fluorescence intensity (a.u.)
CCTCCGATCCCCATGCCTCCTCCGCCTCCGCCTCCCTCCCCGGAGTCACCTAGTGCAG | 8210 fluorescence intensity (a.u.)
ACCTACCGCGTACCGCGTCCCCTTATCTGCTTTGGACGCTCGGAGTCACCTAGTGCAG | 8960 fluorescence intensity (a.u.)
TGGATGGGAGAGGACTAGTGGGCTGCACAGAATTTCGGTTCGGAGTCACCTAGTGCAG | 8240 fluorescence intensity (a.u.)
CTTACCTAGATTCAAATACTCAATACATGCGTATAATTTACGGAGTCACCTAGTGCAG | 8590 fluorescence intensity (a.u.)
GTACTAGAGGTGATGCATTGTATAGGTTGACTCTTAGAGCCGGAGTCACCTAGTGCAG | 8180 fluorescence intensity (a.u.)
GACAGATGATCTGCTTCTTCGACTCGATTGCTCACCTAAACGGAGTCACCTAGTGCAG | 9710 fluorescence intensity (a.u.)
ACTGCTAGCCTAAAATCCAATTTCTAATCCTTCGTTTTCCCGGAGTCACCTAGTGCAG | 8390 fluorescence intensity (a.u.)
GGTGGTTGGCGCGCGTTTTCTTGTGTGGTTTTTTGTGTCGCGGAGTCACCTAGTGCAG | 14200 fluorescence intensity (a.u.)
AACAAGACATTTCTCTCTCTCTGGCAAGTTTGGAATTGGACGGAGTCACCTAGTGCAG | 9270 fluorescence intensity (a.u.)
AATTTCCACTTTGCCAAACAAGACCTTTTAAGTGGGCCCGCGGAGTCACCTAGTGCAG | 9110 fluorescence intensity (a.u.)
CGACCTCACCCACCGTTTCTCGATCGTTTCTCTCCCTCCTCGGAGTCACCTAGTGCAG | 10300 fluorescence intensity (a.u.)
TTTTCTTTGGCTCTTCAGAGTTTTGTCCATCTCTATCTTCCGGAGTCACCTAGTGCAG | 12600 fluorescence intensity (a.u.)
GAGAAATTTGCGCATGGAAGCACCGGAATTCCACGTTATCCGGAGTCACCTAGTGCAG | 9020 fluorescence intensity (a.u.)
GTTCGTTTCGTTTCGTTTCCATCAGACGCGCGGCCGCAGCCGGAGTCACCTAGTGCAG | 8230 fluorescence intensity (a.u.)

An excerpt of these results, in CSV form:
Sequence,binding signal
CTCGTACTGGCACCCACTCTCTCTCCCTGCCTCTCTGCCACGGAGTCACCTAGTGCAG,8810 fluorescence intensity (a.u.)
TGATAGTTGGGTTTACTTGAAGATTCGTGTGTGGGAGTTTCGGAGTCACCTAGTGCAG,9650 fluorescence intensity (a.u.)
TTGCCAGTTTGCCACCTCGCGTCATGGATCGCCCTTTTGCCGGAGTCACCTAGTGCAG,11300 fluorescence intensity (a.u.)
